Data as given in PubChem BioAssay AID1117269 (University of Michigan, 2014).
Here is a random part of 714 reagents. 49 of them (6.9%) were called active. 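Active means a hit in at least one line; per-line hit columns show which; some siRNA pools appear more than once.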 No sequences are given here. The record does not give: the amount of reagent.

Purpose: 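Kinome-wide knockdown screen for regulators of TGF-beta reporter output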 (primary screen)
System: human A549 lung cancer and 1833 breast cancer (MDA-MB-231-derived) cell lines carrying a stable BTR luciferase reporter
Reagents: siRNA pool against human genes
Time to read-out: 72 h after transfection, then 1 h TGF-beta before the read
Conditions: TGF-beta 10 ng/mL added one hour before luciferin and read-out
Measurement: 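BTR reporter bioluminescence as fold change relative to non-targeting siRNA, averaging triplicates per line; knockdown for 72 h, then TGF-beta at 10 ng/mL 1 h prior to reading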
Scale: fold over scrambled siRNA, A549 and fold over scrambled siRNA, 1833: higher = more reporter light, weaker TGF-beta receptor signalling
Rule for the call: 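Hit in either line counts as active; per-line hits lie above an upper limit from quartiles of averaged log fold values, in plate and screen-wide analyses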
Meaning of the calls: active = hit in at least one line; inactive = hit in neither line

HK2 → fold over scrambled siRNA, A549: 1.1; fold over scrambled siRNA, 1833: 5.76; hit in A549: not a hit in A549; hit in 1833: not a hit in 1833; outcome: inactive
PIK3C2A → fold over scrambled siRNA, A549: 1.01; fold over scrambled siRNA, 1833: 0.778; hit in A549: not a hit in A549; hit in 1833: not a hit in 1833; outcome: inactive
CDKN1B → fold over scrambled siRNA, A549: 0.804; fold over scrambled siRNA, 1833: 2.79; hit in A549: not a hit in A549; hit in 1833: not a hit in 1833; outcome: inactive
MAP3K3 → fold over scrambled siRNA, A549: 1; fold over scrambled siRNA, 1833: 1.73; hit in A549: not a hit in A549; hit in 1833: not a hit in 1833; outcome: inactive
MVK → fold over scrambled siRNA, A549: 2.12; fold over scrambled siRNA, 1833: 2.47; hit in A549: not a hit in A549; hit in 1833: not a hit in 1833; outcome: inactive
RPS6KA5 → fold over scrambled siRNA, A549: 2.33; fold over scrambled siRNA, 1833: 5.5; hit in A549: not a hit in A549; hit in 1833: not a hit in 1833; outcome: inactive
SKAP1 → fold over scrambled siRNA, A549: 1.75; fold over scrambled siRNA, 1833: 2.87; hit in A549: not a hit in A549; hit in 1833: not a hit in 1833; outcome: inactive

An excerpt from above, reduced to “hit in A549”:
PIK3C2A	not a hit in A549
CDKN1B	not a hit in A549

More entries follow.
TYK2 → fold over scrambled siRNA, A549: 1.57; fold over scrambled siRNA, 1833: 6.84; hit in A549: not a hit in A549; hit in 1833: not a hit in 1833; outcome: inactive
TEX14 → fold over scrambled siRNA, A549: 0.644; fold over scrambled siRNA, 1833: 1.1; hit in A549: not a hit in A549; hit in 1833: not a hit in 1833; outcome: inactive
PIKFYVE → fold over scrambled siRNA, A549: 1.85; fold over scrambled siRNA, 1833: 3.33; hit in A549: not a hit in A549; hit in 1833: not a hit in 1833; outcome: inactive
EFNA3 → fold over scrambled siRNA, A549: 1.95; fold over scrambled siRNA, 1833: 8.57; hit in A549: not a hit in A549; hit in 1833: not a hit in 1833; outcome: inactive
PCK1 → fold over scrambled siRNA, A549: 0.571; fold over scrambled siRNA, 1833: 2.33; hit in A549: not a hit in A549; hit in 1833: not a hit in 1833; outcome: inactive
NLK → fold over scrambled siRNA, A549: 0.944; fold over scrambled siRNA, 1833: 2.87; hit in A549: not a hit in A549; hit in 1833: not a hit in 1833; outcome: inactive
OBSCN → fold over scrambled siRNA, A549: 2.63; fold over scrambled siRNA, 1833: 4.93; hit in A549: not a hit in A549; hit in 1833: not a hit in 1833; outcome: inactive
